Results on 3 compounds are retold here after PubChem BioAssay AID258 (DTP/NCI, 2004).

The test system of this experiment is CD2F1 mice, L1210 leukemia sc, survival T/C. The experiment can be described thus: NCI In Vivo Anticancer Drug Screen. Data for tumor model L1210 Leukemia (subcutaneous) in CD2F1 (CDF1) mice. The settings on record: T/C endpoint: median survival time, schedule: Q01DX Z (sc), higher T/C = longer survival. Here is the method:
The antitumor activity of compounds was measured in mice bearing transplantable tumors. Survival or tumor size were measured and the results are expressed as the measurement made in the treated group (T) divided by the measurement made in the vehicle treated control group (C). The tumor model used in this assay is L1210 Leukemia (subcutaneous) in CD2F1 (CDF1) mice

Molecules are shown by their SMILES. The list does not hold the whole screen: it gathers some chemical classes. Not every dose and run of a compound is shown. T/C gives the treated animals as a percentage of the vehicle group. Some doses have a count of surviving animals in place of a T/C: the source holds a T/C of zero for them, seemingly a mark for toxic or unscored doses. Survivors were counted at the toxicity check, usually on the fifth day, unless a day is given; later deaths do not show. Schedule codes are those of the source, taken here to give the interval after Q, in days (D) or hours (H), and the number of doses after X. Some schedules carry Z or #; the key to these is not given. For survival time, the PubChem record calls one and a half times the control and up active, and a quarter to a half above the control has no call in these data; cut-offs in other NCI protocols can differ. Some T/C values carry the count of animals alive at the toxicity check (mostly the fifth day); without a count or a note in brackets, all were alive then.

With `Cc1[nH]c(=O)[nH]c(=O)c1N(CCCl)CCCl`, the survivor count by setting is: (dose: 5.0 mg/kg/injection, vehicle: saline) 3 of 10; (dose: 8.4 mg/kg/injection, vehicle: saline) 3 of 10; (dose: 23.0 mg/kg/injection, vehicle: saline) 6 of 10. For the same compound, the T/C (dose: 14.0 mg/kg/injection, vehicle: saline) is 142 % of control [7 of 10 alive] and the T/C (dose: 39.0 mg/kg/injection, vehicle: saline) was 126 % of control [8 of 10 alive].

As for `ClCCNCCCCCNCCCl`, the T/C reads like this: (dose: 25.0 mg/kg/injection, vehicle: saline) 95 % of control; (dose: 50.0 mg/kg/injection, vehicle: saline) 100 % of control; (dose: 100.0 mg/kg/injection, vehicle: saline) 100 % of control; (dose: 200.0 mg/kg/injection, vehicle: saline) 100 % of control; (dose: 400.0 mg/kg/injection, vehicle: saline) 110 % of control.

Consider `NNS(=O)(=O)c1ccc(N(CCCl)CCCl)cc1`, for which the survivor count is on record as 6 of 10 (dose: 14.0 mg/kg/injection, vehicle: methylcellulose (MC)) and 3 of 10 (dose: 108.0 mg/kg/injection, vehicle: methylcellulose (MC)). For the same compound, the T/C (dose: 23.4 mg/kg/injection, vehicle: methylcellulose (MC)) was 105 % of control [9 of 10 alive]; the T/C (dose: 38.9 mg/kg/injection, vehicle: methylcellulose (MC)) is 105 % of control [8 of 10 alive]; the T/C (dose: 64.8 mg/kg/injection, vehicle: methylcellulose (MC)) is 105 % of control [7 of 10 alive]; the T/C (dose: 180.0 mg/kg/injection, vehicle: methylcellulose (MC)) is 105 % of control [9 of 10 alive]; the T/C (dose: 300.0 mg/kg/injection, vehicle: methylcellulose (MC)) is 105 % of control [7 of 10 alive].
